The other results are listed elsewhere or left out.
Compound: CC1Cc2ccccc2N1C(=O)C1CCCN(C1)C(=O)CCl (mixture of isomers) [TRIM25 ligand 11 (diastereomer mixture)]
Assay: probe-labelled cysteine peptide fold change vs DMSO (competition) (log2 fold change); higher = less target engagement (more negative = stronger competition)
Details: THP-1, incubation time: 4 h
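Further: competitive chemoproteomic profiling in live THP-1 cells with an iodoacetamide desthiobiotin (IA-DTB) probe, comparing probe-labelled peptide intensities in compound-treated cells against DMSO-treated controls.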

Target | probe-labelled cysteine peptide fold change (10 µM) | probe-labelled cysteine peptide fold change (50 µM)
SMARCAD1_Q9H4L7_772_NTEMCNVMMQLR (UniProt Q9H4L7) | 0.0876 | -0.132
SMC1A_Q14683_1073_FDRFNACFESVATNIDEIYK (UniProt Q14683) | -0.0806 | -0.00889
SMU1_Q2TAY7_448_EGGDFVCCALSPR (UniProt Q2TAY7) | 0.0825 | 0.134
SNRNP200_O75643_502_AALETDENLLLCAPTGAGK (UniProt O75643) | 0.347 | 0.165
SLC35F6_Q8N357_36_WADNFMAEGCGGSK (UniProt Q8N357) | -0.11 | -0.189
SLC27A2_O14975_149_SLLHCFQCCGAK (UniProt O14975) | 0.128 | 0.214
SLU7_O95391_445_CCHSFFK (UniProt O95391) | 0.132 | 0.191
SLMAP_Q14BN4_641_CQQCEDQQR (UniProt Q14BN4) | 0.151 | 0.124
SMAP1_Q8IYB5_85_SVNLDQWTAEQIQCMQDMGNTK (UniProt Q8IYB5) | 0.0809 | 0.0618
SLFN11_Q7Z7L1_884_TADPAILPNVLICLASR (UniProt Q7Z7L1) | -0.233 | -0.208
SNAPC1_Q16533_11_GTPPGLQTDCEALLSR (UniProt Q16533) | -0.19 | 0.139
SMPD4_Q9NXE4_766_FAGQMAALCSR (UniProt Q9NXE4) | -0.231 | -0.0921
SLC30A1_Q9Y6M5_437_SSVVPCELACR (UniProt Q9Y6M5) | -0.129 | -0.19
SMU1_Q2TAY7_416_NPEHFVVCNR (UniProt Q2TAY7) | -0.00322 | 0.0655
SMC5_Q8IY18_726_LMEQDTCNLEEEERK (UniProt Q8IY18) | -0.0745 | -0.261
SNRNP40_Q96DI7_99_LILLWNVYGDCDNYATLK (UniProt Q96DI7) | 0.0363 | 0.117
SMPD4_Q9NXE4_164_ASIQECILPDSPLYHNK (UniProt Q9NXE4) | 0.0166 | -0.046
SNRNP200_O75643_1506_DVAHWLGCSATSTFNFHPNVR (UniProt O75643) | 0.129 | 0.14
SMG6_Q86US8_182_VEEEEVLNQVEQLRVEEDECR (UniProt Q86US8) | -0.0867 | -0.275
SMURF2_Q9HAU4_706_LFTIHQIDACTNNLPK (UniProt Q9HAU4) | -0.109 | -0.298

Some of the entries so far, as comma-separated lines:
Target,probe-labelled cysteine peptide fold change (10 µM),probe-labelled cysteine peptide fold change (50 µM)
SNRNP40_Q96DI7_99_LILLWNVYGDCDNYATLK (UniProt Q96DI7),0.0363,0.117
SMPD4_Q9NXE4_164_ASIQECILPDSPLYHNK (UniProt Q9NXE4),0.0166,-0.046

The list continues.

Target | probe-labelled cysteine peptide fold change (10 µM) | probe-labelled cysteine peptide fold change (50 µM)
SLPI_P03973_51+57_YKKPECQSDWQCPGK (UniProt P03973) | -0.301 | -0.883
SMCHD1_A6NHR9_897_GPVNSCQGK (UniProt A6NHR9) | -0.0594 | -0.0254
SMARCC2_Q8TAQ2_635_TQDECILHFLR (UniProt Q8TAQ2) | 0.00815 | 0.0104
SND1_Q7KZF4_826_DIQNTQCLLNVEHLSAGCPHVTLQFADSKGDVGLGLVK (UniProt Q7KZF4) | -0.352 | -0.529
SMC2_O95347_585_CIAPETLR (UniProt O95347) | 0.0281 | 0.102
SND1_Q7KZF4_826+837_DIQNTQCLLNVEHLSAGCPHVTLQFADSKGDVGLGLVK (UniProt Q7KZF4) | -0.353 | -0.434
SNRNP200_O75643_1706_CVIMCQGSKK (UniProt O75643) | -0.483 | -0.298
SMYD5_Q6GMV2_70_ACDHCLR (UniProt Q6GMV2) | -0.0677 | 0.0331
SMC4_Q9NTJ3_1083_CHEMKPNLGAIAEYK (UniProt Q9NTJ3) | -0.174 | -0.291
SLC44A1_Q8WWI5_159_SSVLCPK (UniProt Q8WWI5) | 0.0703 | 0.0677
SNRNP200_O75643_428_RCQLPDGSFR (UniProt O75643) | 0.0603 | -0.0144
SMC1A_Q14683_933_HNLLQACK (UniProt Q14683) | -0.197 | -0.257
SMC3_Q9UQE7_972_LEQCNTELK (UniProt Q9UQE7) | 0.0172 | 0.0334
SMC1A_Q14683_619_ALQYACGNALVCDNVEDAR (UniProt Q14683) | 0.499 | 0.406
SNRNP200_O75643_769_TEAEQCK (UniProt O75643) | 0.0258 | -0.0433
SMARCA4_P51532_998_CDMSALQR (UniProt P51532) | 0.13 | 0.146
SMAD3_P84022_121_DEVCVNPYHYQR (UniProt P84022) | -0.0651 | 0.139
SMYD5_Q6GMV2_101_LTGKPGQVLPHPELCTVR (UniProt Q6GMV2) | -0.0205 | 0.00693
SMG8_Q8ND04_72_FSLVNTVCDR (UniProt Q8ND04) | 0.0872 | 0.0377

Reference: the supplement of paper PMC12067093, “Discovery and optimisation of a covalent ligand for TRIM25 and its application to targeted protein ubiquitination” (Chemical Science, 2025)
